Results as given in US11351151B2, “Compound having anticancer activity and preparation method and application” (3D Medicines (Beijing) Co., Ltd., priority 2016, dated 2022).
For part of these data: At least one structure is not confirmed: it was looked up by name or label, or the drawing left a doubt. Some results were stated once for a whole list of compounds, not compound by compound. Each block holds one compound with its values, some of them ahead of it.

Experiments:
[1] = test system: 54 commercial tumor cell lines; assay: Cell proliferation assay (Alamar Blue), summary over the panel; assay type: cell-based; settings: in most tumor cells
Method: 1. Instruments and Materials • Thermo 311 CO2 incubator; Haier biosafety cabinet; Molecular Devices microplate reader; Xiangyi brand L530 desktop low speed centrifuge; Olympus IX51 inverted fluorescence microscope, DMEM, RPMI 1640, MEM, DMEM/F12 1:1 medium, Fetal bovine serum, 0.25% trypsin solution, phosphate buffer (Thermo Fisher Shanghai Co., Ltd.); sigma dimethyl sulfoxide (DMSO), resazurin; 54 commercial tumor cell lines (including 26 liver cancer cell lines). Experimental drugs: compounds 1-12 and active drug Linifanib; chemotherapeutic drug Doxorubicin (HY-15142; Shanghai Qianyuan Biomedical Technology Co., Ltd.).
2. Experimental Methods • 2.1 Cultivation of different cell lines • 54 cell lines were cultured in a culture medium containing fetal bovine serum and placed in a 5% CO 2 incubator at 37° C. for incubation. The cells were all grown in an adherent state, and the growth was observed under an inverted microscope, and subculture was performed when the cell confluence rate reached 80%-90%. The proportion and quantity of passage were determined by experimental needs. The ratio of subculture of this cell line was generally 1:2^˜1:3. • 2.2 inhibition effect on the proliferation of different tumor cell lines • Cell test: 54 cell lines in logarithmic growth phase were inoculated in 96-well culture plates at 500^˜1×10^4/well (the optimal seeding density of each cell line was determined in pre-experiment), After incubating at 37° C. for 4 h in a 5% CO2 humidification incubator, added 10 μL of compounds 1-12 or Linifanib to each well, and tested 9 drug concentration gradients for each compound (diluted from the highest concentration of the test by 3.16 times). The solubility of each compound was different at a starting concentration of 30 or 100 μM, respectively. The QC reference compound Doxorubicin was added simultaneously to each cell line test, and the final drug concentrations were 10, 3.16, 1, 0.31, 0.1, 0.03, 0.01, 0.003, and 0.001 μM, respectively. In addition, a positive control group (100% inhibition) and a negative control group (0% inhibition) were set at the same time. The drug group was repeated for 2 wells per concentration, and the positive control group and the negative control group were repeated for 6 wells. After the culture was continued for 6 days in the incubator, AlamarBlue test operation was followed; • AlamarBlue test procedure: Incubated with 10 μL of AlamarBlue reagent per well for 1-4 h, shook for 1-2 min, MD microplate reader EX: 560 nm, EM: 590 nm wavelength to measure fluorescence, recorded the results, calculated the cell inhibition rate of the compound of the invention. […]

[2] = liver cancer patients, phase III; cited from earlier work

SMILES: Cc1ccc(F)c(NC(=O)Nc2ccc(-c3cccc4[nH]nc(N)c34)cc2)c1 [Linifanib, reference compound]
ORR (overall response rate) [2]: 13.0%
TTP (time to progression) [2]: 5.4 months

SMILES: Cc1ccc(F)c(NC(=O)Nc2ccc(-c3cccc4c3c(N)nn4C(=O)CCCCCNC(=O)C[C@H](N)C(=O)N[C@@H](CCC(=O)O)C(=O)O)cc2)c1 [Compound 4]
difference in IC50 values between compound and Linifanib [1]: more than 5 times

The next lines start with the values.

difference in IC50 values between compound and Linifanib [1]: more than 5 times
SMILES: Cc1ccc(F)c(NC(=O)Nc2ccc(-c3cccc4c3c(N)nn4C(=O)CCCCCNC(=O)C[C@H](N)C(=O)O)cc2)c1 [Compound 11]

difference in IC50 values between compound and Linifanib [1]: more than 5 times
SMILES: Cc1ccc(F)c(NC(=O)Nc2ccc(-c3cccc4c3c(N)nn4C(=O)CCCCCCCCCCCNC(=O)C[C@H](N)C(=O)N[C@@H](CCC(=O)O)C(=O)O)cc2)c1 [Compound 7]

difference in IC50 values between compound and Linifanib [1]: more than 5 times
SMILES: Cc1ccc(F)c(NC(=O)Nc2ccc(-c3cccc4c3c(N)nn4C(=O)CCCCCCCCCCCNC(=O)C[C@H](N)C(=O)O)cc2)c1 [Compound 12]
